We go through one molecule from patent EP0120019B1, “PHARMACEUTICAL COMPOSITION HAVING A C[…]” (SCHERING AKTIENGESELLSCHAFT, priority 1982, dated 1983).

This assay relates to Menschliche Leukämiezellen und Lungenkarzinomzellen. Briefly: Inhibition of proliferation (growth kinetics by cell count) of tumour cells in culture. Format: cell-based.

For `CCN(CC)C(=O)N[C@H]1C=C2c3cccc4[nH]cc(c34)C[C@H]2N(C)C1` [Lisurid, 1,1-Diethyl-3-(6-methyl-9.10-didelhydro-8a-ergolinyl)-harnstoff], the inhibition at 5 µg/mL (5 pg/ml, cell count after 48, 96 and 144 h, versus Lisurid-free medium, read-out: Hemmung der Zellvermehrung (Maximalwerte)) was at most 18%. Also, the inhibition at 20 µg/mL (20 µg/ml, cell count after 48, 96 and 144 h, versus Lisurid-free medium, read-out: Hemmung der Zellvermehrung (Maximalwerte)) was at most 53%. For the same molecule, the inhibition at 40 µg/mL (40 ug/ml, cell count after 48, 96 and 144 h, versus Lisurid-free medium, read-out: Hemmung der Zellvermehrung (Maximalwerte)) was at most 68%. Moreover, the inhibition at 100 µg/mL (100 µg/ml, cell count after 48, 96 and 144 h, versus Lisurid-free medium, read-out: Hemmung der Zellvermehrung (Maximalwerte)) is over 100%. In addition, under “general statement, in vitro”, the “zytostatische Wirkung (Hemmung der Proliferation in vitro)” value was “zytostatisch wirken”.
